The values that follow come from the supplement of paper PMC11150407.

SMILES strings stand for the structures. Structures can show the parent of a compound that is named as a salt. The whole screen tested about 2,100 compounds, of which about 180 (8.6%) showed an effect of 50% or more. The list shows a part of the results.

This test relates to MOLM1 and UCSD/AML1 (averaged). Briefly: cell viability relative to DMSO control (POC); higher = less growth inhibition. To be noted: 1 µM; 72 h. Here is the method:
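Primary viability screen in the 3q26 EVI1-high AML cell lines MOLM1 and UCSD/AML1 (1.5e3 cells/well, 384-well), compounds at 1 uM for 72 h. ATP CellTiter-Glo read-out given as percent of viable cells over DMSO control (POC), averaged over duplicates. DMSO was the negative control and 5 uM etoposide the positive control. This mapping covers the MicroSource Spectrum and Selleck anticancer libraries (drug names).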
Consider `N[C@@H](Cc1cc(I)c(Oc2cc(I)c(O)c(I)c2)c(I)c1)C(=O)O`, for which the cell viability came to 88.4%. Consider `Cc1cc(=O)oc2cc(O)c(O)cc12`, for which the cell viability was determined as 98.5%. With `Nc1cccc2c1C(=O)N(C1CCC(=O)NC1=O)C2=O` (centres undefined) [Pomalidomide], the cell viability stood at 104%.

In the case of `O=C(O)CCCCCCCCCCCC[C@@H]1C=CCC1`, the cell viability amounted to 93.9%. As for `CN(C)CCN(Cc1ccccc1)c1ccccn1`, the figure is 90%. For `C=CC1=C(C)c2cc3[nH]c(cc4nc(cc5[nH]c(cc1n2)c(C)c5CCC(=O)O)C(CCC(=O)O)=C4C)c(C)c3C=C`, the cell viability turned out to be 106%.

Consider `Nc1ccn([C@@H]2O[C@H](CO)[C@@H](O)C2(F)F)c(=O)n1` [Gemcitabine (Gemzar)], for which the cell viability came to 8.79%.

In the case of `Nc1ccn([C@@H]2O[C@H](CO)[C@@H](O)C2(F)F)c(=O)n1` [Gemcitabine HCl (Gemzar)], the cell viability is 10.8%.

For the compound `CC(=O)O[C@@]12CO[C@@H]1C[C@H](O)[C@@]1(C)C(=O)[C@H](O)C3=C(C)[C@@H](OC(=O)[C@H](O)[C@@H](NC(=O)OC(C)(C)C)c4ccccc4)C[C@@](O)([C@@H](OC(=O)c4ccccc4)[C@H]21)C3(C)C` [Docetaxel (Taxotere)], the cell viability is 14.7%. As for `Clc1ccc(CSC(Cn2ccnc2)c2ccc(Cl)cc2Cl)cc1` (centres undefined), the figure is 104%; as for `C[n+]1cc2c3c(ccc2c2ccc4cc5c(cc4c21)OCO5)OCO3`, 80%. Regarding `CCN(CC)C(=O)c1cccc(C)c1`, the cell viability was determined as 114%. In the case of `CCCN(CCC)S(=O)(=O)c1ccc(C(=O)O)cc1`, the cell viability is 97.4%. Take `COc1ccc(-c2coc3c(O)c(OC)ccc3c2=O)cc1`: the cell viability was determined as 94.6%. Take `CN(C)CCOC(c1ccccc1)c1ccccc1`: the cell viability came to 109%. For the compound `CC(=O)[C@H]1CC[C@H]2[C@@H]3CCC4=CC(=O)CC[C@]4(C)[C@H]3CC[C@]12C`, the cell viability stood at 97.5%. Next, `CN(C)CC/C=C1/c2ccccc2Sc2ccc(Cl)cc21`: 95.6%. On to `CC(=O)O[C@H]1C[C@@H](OC(C)=O)C(C)(C)[C@@H]2C[C@@H](OC(C)=O)[C@]3(C)[C@H](CC[C@@]4(C)[C@H](c5ccoc5)OC(=O)[C@H]5O[C@@]534)[C@@]12C`, for which the cell viability was determined as 83.3%.

With `CC(=O)Oc1ccccc1C(=O)O`, the cell viability was found to be 101%. As for `N=C(N)NS(=O)(=O)c1ccc(N)cc1`, the figure is 101%. As for `CC1=C(/C=C/C(C)=C/C=C/C(C)=C/C(=O)O)C(C)(C)CCC1`, the figure is 94.7%.

Consider `CC1=C(/C=C/C(C)=C/C=C/C(C)=C/C(=O)O)C(C)(C)CCC1` [All-trans Retinoic Acid (Tretinoin)], for which the cell viability was determined as 75.1%. In the case of `CC(=O)O[C@@H]1CC2C(C)(C)[C@H](O)C=C[C@]2(C)C2CC[C@@]3(C)[C@H](c4ccoc4)OC(=O)C4OC43[C@@]21C` (some centres undefined), the cell viability came out at 98.8%.

As for `COc1cc(C(=O)NCCCCCC(=O)O)cc(OC)c1OC`, the cell viability worked out at 102%.
